Source: patent US20260218135A1 (REGENTS OF THE UNIVERSITY OF COLORADO A BODY CORPORATE, published 2026)
No constants are given. Whether binding was seen depends on the method and setting. In cells and extracts the contact can be indirect. Some results given as binding are weak or reduced against the parent protein; the word gives no strength. For some of these results: Tags and fused reporters may be left off the sequences shown.

By UniProt entry, the sequences of proteins in these tests, tags left out.
UniProt A6ZKI3: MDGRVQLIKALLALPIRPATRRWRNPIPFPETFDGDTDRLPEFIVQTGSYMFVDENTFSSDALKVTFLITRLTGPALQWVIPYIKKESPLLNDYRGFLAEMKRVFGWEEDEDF

Columns and labels:
[1] = target: T1, HA-PEG10 gag-pol (2x HA-tagged human PEG10, AA1-708) (Homo sapiens) (UniProt Q86TG7); assay: crosslinking co-immunoprecipitation, IP with FLAG antibody, western blot
T1 sequence (looked up): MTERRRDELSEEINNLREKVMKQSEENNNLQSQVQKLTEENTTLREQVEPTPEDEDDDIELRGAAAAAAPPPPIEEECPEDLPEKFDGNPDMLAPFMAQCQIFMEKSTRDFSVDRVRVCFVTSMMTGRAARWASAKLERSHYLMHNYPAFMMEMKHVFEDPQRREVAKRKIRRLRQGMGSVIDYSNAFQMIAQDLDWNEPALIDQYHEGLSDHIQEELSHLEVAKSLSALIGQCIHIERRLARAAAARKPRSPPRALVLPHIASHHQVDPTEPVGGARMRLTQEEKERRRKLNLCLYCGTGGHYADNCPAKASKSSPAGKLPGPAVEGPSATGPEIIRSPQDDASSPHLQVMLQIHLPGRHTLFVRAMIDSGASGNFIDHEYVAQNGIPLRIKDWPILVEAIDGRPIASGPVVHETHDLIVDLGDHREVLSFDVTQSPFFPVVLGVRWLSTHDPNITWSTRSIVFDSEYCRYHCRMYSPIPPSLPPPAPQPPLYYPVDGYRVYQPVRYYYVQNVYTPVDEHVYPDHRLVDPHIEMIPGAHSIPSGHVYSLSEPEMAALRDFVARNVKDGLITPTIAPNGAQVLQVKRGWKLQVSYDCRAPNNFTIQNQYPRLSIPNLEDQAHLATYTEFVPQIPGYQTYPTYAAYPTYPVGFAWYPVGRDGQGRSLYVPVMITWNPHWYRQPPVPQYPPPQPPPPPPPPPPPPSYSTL

[2] = target: T2, HA-capsid^NTD (2x HA-tagged human PEG10, AA1-160) (Homo sapiens) (UniProt Q86TG7); assay: as above
T2 sequence (looked up): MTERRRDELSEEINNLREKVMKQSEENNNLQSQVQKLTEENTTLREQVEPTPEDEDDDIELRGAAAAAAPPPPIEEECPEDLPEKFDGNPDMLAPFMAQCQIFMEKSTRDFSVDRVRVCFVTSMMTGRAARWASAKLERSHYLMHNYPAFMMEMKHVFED

[3] = target: T2, HA-capsid^NTD (2x HA-tagged human PEG10, AA1-160) (Homo sapiens); assay: crosslinking co-immunoprecipitation, IP with FLAG antibody, western blot (FIG. 3d)
[4] = target: T1, HA-PEG10 gag-pol (2x HA-tagged human PEG10, AA1-708) (Homo sapiens); assay: crosslinking co-immunoprecipitation, IP with HA antibody, HEK293 lysate, western blot
[5] = target: HA-PEG10 capsid (37 kDa self-cleavage product of HA-PEG10) (Homo sapiens) (UniProt Q86TG7); assay: crosslinking co-immunoprecipitation, IP with FLAG antibody, HEK293 lysate, western blot
[6] = target: T1, HA-PEG10 gag-pol (2x HA-tagged human PEG10, AA1-708) (Homo sapiens); assay: as above
[7] = target: T3, murine HA-tagged Peg10 (murine) (UniProt Q7TN75); assay: co-immunoprecipitation of murine or human FLAG-RTL8 with murine HA-tagged Peg10 (FIG. 4e), n=1
T3 sequence (looked up): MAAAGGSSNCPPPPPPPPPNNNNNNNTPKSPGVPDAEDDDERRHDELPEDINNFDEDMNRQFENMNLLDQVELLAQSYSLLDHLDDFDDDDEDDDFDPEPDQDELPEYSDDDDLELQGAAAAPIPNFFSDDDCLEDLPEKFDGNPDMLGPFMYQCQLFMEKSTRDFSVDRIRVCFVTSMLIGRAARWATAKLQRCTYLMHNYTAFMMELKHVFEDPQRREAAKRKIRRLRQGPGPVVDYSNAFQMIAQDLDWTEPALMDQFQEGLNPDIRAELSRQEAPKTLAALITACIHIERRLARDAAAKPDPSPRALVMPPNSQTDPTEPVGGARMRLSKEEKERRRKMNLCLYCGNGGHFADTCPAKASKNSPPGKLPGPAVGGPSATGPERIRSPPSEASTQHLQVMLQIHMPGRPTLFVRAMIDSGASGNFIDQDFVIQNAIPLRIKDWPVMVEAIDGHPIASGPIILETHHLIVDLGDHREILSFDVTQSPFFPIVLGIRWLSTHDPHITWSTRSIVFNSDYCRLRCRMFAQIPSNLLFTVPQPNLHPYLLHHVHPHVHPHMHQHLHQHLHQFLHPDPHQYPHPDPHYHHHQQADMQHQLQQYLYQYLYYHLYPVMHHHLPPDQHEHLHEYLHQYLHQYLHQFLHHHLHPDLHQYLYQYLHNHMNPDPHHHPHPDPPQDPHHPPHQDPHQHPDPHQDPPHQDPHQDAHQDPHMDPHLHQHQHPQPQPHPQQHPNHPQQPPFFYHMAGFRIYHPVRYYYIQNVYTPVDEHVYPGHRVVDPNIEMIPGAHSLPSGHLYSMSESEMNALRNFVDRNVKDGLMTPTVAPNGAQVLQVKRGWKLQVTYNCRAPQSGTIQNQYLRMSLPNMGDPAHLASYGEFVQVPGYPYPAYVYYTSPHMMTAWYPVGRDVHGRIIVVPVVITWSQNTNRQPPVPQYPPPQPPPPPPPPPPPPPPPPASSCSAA

Measured: binding

FLAG-HsRTL8c-3'UTR (3x FLAG-tagged human RTL8c, AA1-113) (from UniProt A6ZKI3 1-113)
binds: all assays above
